PubChem BioAssay AID1224826 – NIAID, 2016

Purpose: 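Regulators of Tlr4 signalling leading to Tnf-alpha expression in macrophages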 (primary screen)
Cell system: RAW264.7 G9 macrophages from mouse bearing reporters for p65 (GFP) and the Tnf promoter (mCherry)
Reagent: siRNA pool against mouse genes, 100 nM
Duration: 16 h of LPS stimulation, after 2 days of siRNA transfection
Conditions: bacterial lipopolysaccharide (Salmonella minnesota R595), 10 ng/ml
Detection: 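Nuclear mCherry signal of the Tnf promoter reporter measured by imaging after background removal, scaled to each plate median and turned into robust z-scores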
Reading the numbers: Tnf reporter robust z-score: higher = stronger Tnf promoter reporter signal after LPS
Active means: 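a well counts as active at a score of -1.3 or below (Tlr4 knock-down control median) or above 3 (raised signal); controls and wells holding fewer than 50 cells are excluded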
Meaning of the calls: active = Tnf reporter clearly lowered or raised; inactive = no clear change in Tnf reporter
Shown is one part, drawn at random, of about 17,000 deposited reagents. Of all reagents, about 1,110 (6.6%) are marked active. 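Active means lowered or raised reporter signal; replicate intensities are raw and not normalised per plate.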 Entries without a mark were called inactive. Further read-outs or replicates are left out here. Reagent sequences are not shown.

With Alox5ap, what does the deposit list?
Tnf reporter robust z-score: 0.11; fewer than 50 cells in well: enough cells in well

Which result is listed for Pfn3?
Tnf reporter robust z-score: 1.06; fewer than 50 cells in well: enough cells in well

How did the screen score Zmym3?
Tnf reporter robust z-score: 4.13 (active); fewer than 50 cells in well: enough cells in well

Which result is listed for Atp4b?
Tnf reporter robust z-score: -0.16; fewer than 50 cells in well: enough cells in well

For Hnrnpr, what does the deposit list?
Tnf reporter robust z-score: 1.38; fewer than 50 cells in well: enough cells in well

How did the screen score Rlig1?
Tnf reporter robust z-score: 0.2; fewer than 50 cells in well: enough cells in well

With Rusc1, what does the deposit list?
Tnf reporter robust z-score: 3.24 (active); fewer than 50 cells in well: enough cells in well

For 1700019M22Rik, what does the deposit list?
Tnf reporter robust z-score: -0.12; fewer than 50 cells in well: enough cells in well

How did the screen score Smap1?
fewer than 50 cells in well: fewer than 50 cells per well; well left out of calls

What is on record for Kif2a?
Tnf reporter robust z-score: -0.27; fewer than 50 cells in well: enough cells in well

What is on record for Samd8?
fewer than 50 cells in well: fewer than 50 cells per well; well left out of calls

With Gxylt2, how do the results read?
Tnf reporter robust z-score: -1.32 (active); fewer than 50 cells in well: enough cells in well

For 9930038B18Rik, what was measured?
Tnf reporter robust z-score: -1.02; fewer than 50 cells in well: enough cells in well

What is on record for Or5k15?
Tnf reporter robust z-score: 0.68; fewer than 50 cells in well: enough cells in well

For Nr4a3, how do the results read?
Tnf reporter robust z-score: -0.28; fewer than 50 cells in well: enough cells in well

For Slc1a2, what was measured?
Tnf reporter robust z-score: -0.7; fewer than 50 cells in well: enough cells in well

How did the screen score Tm4sf1?
Tnf reporter robust z-score: 0.07; fewer than 50 cells in well: enough cells in well

With Trim30d, how do the results read?
Tnf reporter robust z-score: 0.29; fewer than 50 cells in well: enough cells in well

For Kel, how do the results read?
Tnf reporter robust z-score: 0.75; fewer than 50 cells in well: enough cells in well

With Helb, what does the deposit list?
Tnf reporter robust z-score: 0.16; fewer than 50 cells in well: enough cells in well

What is on record for Cebpg?
Tnf reporter robust z-score: 0.51; fewer than 50 cells in well: enough cells in well

How did the screen score Rnft1?
Tnf reporter robust z-score: 0.87; fewer than 50 cells in well: enough cells in well

For Med14, how do the results read?
Tnf reporter robust z-score: -1.47 (active); fewer than 50 cells in well: enough cells in well

For Tmem266, what does the deposit list?
Tnf reporter robust z-score: 0.15; fewer than 50 cells in well: enough cells in well

How did the screen score Ces3b?
Tnf reporter robust z-score: -1.15; fewer than 50 cells in well: enough cells in well

With Tcstv3, how do the results read?
fewer than 50 cells in well: fewer than 50 cells per well; well left out of calls

For Fads2, how do the results read?
Tnf reporter robust z-score: -1.93 (active); fewer than 50 cells in well: enough cells in well

Entries above marked active (5):
Zmym3 — Tnf reporter robust z-score: 4.13 (active); fewer than 50 cells in well: enough cells in well
Rusc1 — Tnf reporter robust z-score: 3.24 (active); fewer than 50 cells in well: enough cells in well
Gxylt2 — Tnf reporter robust z-score: -1.32 (active); fewer than 50 cells in well: enough cells in well
Med14 — Tnf reporter robust z-score: -1.47 (active); fewer than 50 cells in well: enough cells in well
Fads2 — Tnf reporter robust z-score: -1.93 (active); fewer than 50 cells in well: enough cells in well
